Test results from paper PMC12754617, “Ruthenium-enhanced curcumin derivatives target tumor growth and cancer-related inflammation in head and neck cancer models” (Frontiers in Oncology, 2025).

What was measured:
Experiment in all cases: MTT viability assay
Type in all cases: cell-based, human
CAL 27 = conditions: IC50 HGF / IC50 CAL 27, 24 h
Method: (§1) A colorimetric 3-(4,5-dimethylthiazolyl)-2,5-diphenyltetrazolium bromide (MTT) cell metabolic activity assay was used to assess the cytotoxicity of complexes 3 and 4. The cells (described above) were cultured under standard conditions. Cells were seeded in 96-well plates at a density of 10,000 cells per well (200 μL) and allowed to grow for 24 h. The medium was then replaced with medium containing complex 3 or 4 at a concentration ranging from 0 to 200 μM, and the cells were incubated for an additional 24, 48, and 72 h. Subsequently, the medium was replaced with MTT solution, consisting of yellow tetrazolium dye 3-(4,5-dimethylthiazol-2-yl)-2,5-diphenyltetrazolium bromide (Sigma-Aldrich, Merck, Germany), and incubated for 2 h at 37°C. The dye was then removed, and the resulting purple formazan formed in viable cells was dissolved in DMSO, followed by shaking for 30 s. Absorbance was measured at 570 nm using an […] 200 PRO microplate reader (TECAN, Männedorf, Switzerland). All experiments were performed in quadruplicate and repeated three times.
(§2) The cell inhibitory concentration (IC) was calculated using the equation IC = (Acomplex3/complex4 well/mean Acontrol wells) × 100%. The half-maximal inhibitory concentration (IC50) was determined from dose–response curves using GraphPad Prism 10 (GraphPad Software Inc., La Jolla, CA, USA). The selectivity index toward cancer cells was calculated as a ratio of the average IC50 value for HGF to the IC50 value for the corresponding cancer cell line.

FaDu = conditions: IC50 HGF / IC50 FaDu
Method: as §1, §2

TR146 = conditions: IC50 HGF / IC50 TR146, 24 h
Method: as §1, §2

Hep-2 = conditions: IC50 HGF / IC50 Hep-2, 24 h
Method: as §1, §2

SCC-9 = conditions: IC50 HGF / IC50 SCC-9, 24 h
Method: as §1, §2

Detroit 562 = conditions: IC50 HGF / IC50 Detroit 562, 24 h
Method: as §1, §2

KB = conditions: IC50 HGF / IC50 KB
Method: as §1, §2

## Cc1ccc(C(C)C)cc1.Cc1ccc(C(C)C)cc1.O=C1C(=Cc2ccnc3ccccc23)COCC1=Cc1ccnc2ccccc12.[Cl][Ru][Cl].[Cl][Ru][Cl] [Complex 3]
CAL 27
  Selectivity index 24h: 0.92
FaDu
  Selectivity index 24h: 2.40
TR146
  Selectivity index 24h: 1.05
Hep-2
  Selectivity index 24h: 1.63
SCC-9
  Selectivity index 24h: 4.41
Detroit 562
  Selectivity index 24h: 1.68
KB
  Selectivity index 24h: 1.45
